Measured values taken from PubChem BioAssay AID504467 (National Center for Advancing Translational Sciences (NCATS), 2011).
Out of some 330,000 compounds screened, about 7,700 (2.3%) were called active. The shares of active, inactive and inconclusive entries below differ from those in the screen. Calls come from the whole dose curve; as a rule, active = well fitted inhibition curve with a large enough effect; inconclusive = small, poorly fitted or top-dose-only effect, or effect the other way; inactive = flat fitted curve, though single readings scatter. Potencies of inconclusive entries are doubtful fits and often do not repeat.

Experiment: qHTS screen for small molecules that inhibit ELG1-dependent DNA repair in human embryonic kidney (HEK293T) cells expressing luciferase-tagged ELG1; note: nearly all actives have a fitted effect of over 55% in size
Settings: HEK293T ELG1-luciferase reporter, luminescence, 16 h, DNA damage induced by 5-fluorouridine; series mostly up to 46.1 µM
Procedure, shortened: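 In this reporter screen, reduction of luminescence relative to DMSO vehicle indicated activity. Compounds and 5-fluorouridine were added together to 2,000 cells per well, incubated for 16 hr at 37 °C, then developed with ONE-Glo.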
Potency is the fitted concentration of half-maximal effect.

Row | Structure (SMILES) | Potency
1 | CCOc1cc(/C=C2\C(=O)N(CCc3ccc(OC)c(OC)c3)C(C)=C2C(=O)OC)ccc1O | active: 1.64 µM
2 | CC(CCc1ccco1)NC(=O)c1cccc2c1C(=O)N(C1CCCCC1)C2 (stereo not drawn) | inconclusive: 29.1 µM [inhibitor, single point]
3 | CC(C)NC(=O)COC(=O)c1cccc(NS(=O)(=O)/C=C/c2ccccc2)c1 | inconclusive: 16.4 µM [inhibitor, partial curve, poor fit]
4 | COc1ccc(C(=O)CSc2nc3ccccc3n2CC(=O)NC(C)(C)C)cc1 | inconclusive: 0.0073 µM [activator, full curve]
5 | COc1ccc(NC(=O)c2ccccc2N(Cc2ccccc2)S(C)(=O)=O)c(OC)c1 | inconclusive: 20.6 µM [inhibitor, partial curve, poor fit]
6 | CC(=O)Nc1ccc(NC(=O)COC(=O)C2CCCCC2)cc1 | inconclusive: 16.4 µM [activator, partial curve, poor fit]
7 | COc1ccc(CCNC(=O)c2cccc3c2C(=O)N(C2CCCCC2)C3)cc1OC | inconclusive: 16.4 µM [inhibitor, single point]
8 | CCCNC(=O)C(Cc1ccc(I)cc1)NC(=O)c1ccc2ccccc2n1 (stereo not drawn) | inconclusive: 29.1 µM [inhibitor, single point]
9 | CC1CCN(C(=O)CCc2nnc3ccc(NCCCN4CCCC4=O)nn23)CC1 | inactive
10 | O=C(CSc1nc(=O)n(CCCN2CCOCC2)c2c1CCCC2)Nc1ccc(F)cc1 | inactive
11 | CC1(C)Cc2c(cnn2-c2ccc(F)cc2)C(NC(=O)CCn2cncn2)C1 (stereo not drawn) | inconclusive: 23.1 µM [activator, partial curve]
12 | CCOC(=O)[C@H]1[C@H]2COc3cc(OC)ccc3[C@@H]2N2C(=O)c3ccc(F)cc3NC(=O)[C@@]12C | inconclusive: 31.6 µM [inhibitor, single point]
13 | OCC1CCCN(C(=S)Nc2ccc(OC(F)F)cc2)C1 (stereo not drawn) | inconclusive: 16.4 µM [activator, partial curve]
14 | C=CCCC(=O)Nc1nc(C)c(-c2csc(Nc3ccc(Cl)cc3)n2)s1 | active: 18.4 µM
15 | Cc1ccc(CNC(=O)CSc2c3c(nc4ccc(Cl)cc24)CCCC3)o1 | inconclusive: 23.1 µM [inhibitor, single point]
16 | CCOc1ccccc1NC(=O)NNC(=O)c1ccc2ccccc2c1 | inconclusive: 20.6 µM [activator, single point]
17 | C=CCn1c(SCC(=O)Nc2ccc(N3CCOCC3)cc2)nnc1-c1ccncc1 | inactive
18 | COc1cc(/C=N/NC(=O)c2ccccn2)ccc1OC(=O)c1ccc(Br)cc1 | inconclusive: 20.6 µM [activator, partial curve]

Taken from the entries so far for reference:
Row | Structure (SMILES) | Potency
14 | C=CCCC(=O)Nc1nc(C)c(-c2csc(Nc3ccc(Cl)cc3)n2)s1 | active: 18.4 µM
15 | Cc1ccc(CNC(=O)CSc2c3c(nc4ccc(Cl)cc24)CCCC3)o1 | inconclusive: 23.1 µM [inhibitor, single point]
